The entries are a selection whose mix differs from that of the whole data set. At the low end of the ranking, values are background and their order means little.

The chains behind the UniProt entries cited, without tags or fusion partners. Where a name states a change or a piece, a line headed by the entry shows the natural chain unless it says otherwise.
UniProt O43186: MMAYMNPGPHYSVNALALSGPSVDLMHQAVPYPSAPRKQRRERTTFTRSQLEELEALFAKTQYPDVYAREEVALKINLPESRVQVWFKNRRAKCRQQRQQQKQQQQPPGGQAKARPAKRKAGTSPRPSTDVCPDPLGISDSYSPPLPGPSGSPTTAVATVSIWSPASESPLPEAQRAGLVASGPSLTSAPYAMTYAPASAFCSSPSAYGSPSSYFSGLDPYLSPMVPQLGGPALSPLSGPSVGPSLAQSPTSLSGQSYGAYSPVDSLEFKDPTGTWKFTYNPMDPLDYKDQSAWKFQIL

Holding throughout (experiment): DAPPL (digital affinity profiling via proximity ligation, sequencing)
Holding throughout (details): 10 mM Tris-HCl pH 7.5, 50 mM NaCl, 1 mM DTT, 4% glycerol, room temperature, 30 min; GST-TFs on glutathione beads, 16-mer random dsDNA library, 0.1% …; high values mean tight binding; double strand, one strand shown; scale: fold enrichment (6-mer frequency, TF over GST control)

The target in one assay is CRX (UniProt O43186).
For a further assay, the target named is T1, ELF5 (UniProt Q9UKW6-2).
T1 sequence: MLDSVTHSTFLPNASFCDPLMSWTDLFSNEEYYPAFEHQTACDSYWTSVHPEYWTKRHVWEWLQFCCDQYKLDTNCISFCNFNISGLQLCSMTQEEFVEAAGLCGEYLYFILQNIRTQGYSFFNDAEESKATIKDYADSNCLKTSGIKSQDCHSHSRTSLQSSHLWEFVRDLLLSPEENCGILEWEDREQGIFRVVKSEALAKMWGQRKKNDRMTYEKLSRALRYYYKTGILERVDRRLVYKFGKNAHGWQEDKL

In the next assay the target is T2, FEV (UniProt Q99581).
T2 sequence: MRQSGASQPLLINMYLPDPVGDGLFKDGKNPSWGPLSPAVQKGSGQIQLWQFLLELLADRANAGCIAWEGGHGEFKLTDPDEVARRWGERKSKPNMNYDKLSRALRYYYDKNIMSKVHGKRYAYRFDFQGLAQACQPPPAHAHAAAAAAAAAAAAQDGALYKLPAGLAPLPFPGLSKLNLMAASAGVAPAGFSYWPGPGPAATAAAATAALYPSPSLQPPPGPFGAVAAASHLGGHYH

For TTCCTC, the binding signal in the assay with CRX turned out to be 1.43; with ELF5 it was 3.84.
For CACCAT the same measures were 0.831 and 1.1.
The like results for GCGATG were, in that order, 1.03 and 1.17.
AAATTG: the binding signal in the assay with CRX turned out to be 1.05; with ELF5, 1.22.
On to ACTCCC, for which the binding signal was 1.13 with CRX and 1.38 with ELF5.
The like results for CACACT were, in that order, 0.907 and 1.18.
For CGGCTC the same measures were 1.26 and 1.27.
With TGTGAC, the values for the binding signal with CRX and with ELF5 were 0.845 and 1.1, respectively.
In the case of CTAAGT, the values for the binding signal in the assay with CRX and in the assay with ELF5 were 1.8 and 1.17, respectively.
Regarding TATCTA, the binding signal stood at 1.73 with CRX and 1.18 with ELF5.
Regarding GACCTA, the binding signal stood at 1.07 with CRX and 1.15 with ELF5.
The like results for ATGCAT were, in that order, 1.05 and 1.15.
Consider TATCGT, for which the binding signal was 1.28 in the assay with CRX and 1.08 with ELF5.
The like results for CTTCAA were, in that order, 1.22 and 1.32.
As to CGTCCC, the binding signal was 0.884 with CRX and 1.31 with ELF5.
The like results for AGATCC were, in that order, 1.11 and 1.22.
The like results for TCTTTA were, in that order, 1.93 and 1.19.
For ATCGAT the same measures were 1.25 and 1.09.
For the sequence TACATC, the binding signal in the assay with CRX is 1.17; with ELF5 it was 1.81.
The like results for AGACCT were, in that order, 0.967 and 1.05.
For TTAGAA the same measures were 2.08 and 0.975.
Consider GTCCCT, for which the binding signal stood at 0.939 in the assay with CRX and 1.23 in the assay with ELF5.
For CCCATG, the binding signal with CRX worked out at 0.971; with ELF5, 0.973.
On to TAATGC, for which the figures for the binding signal with CRX and in the assay with ELF5 were 2.32 and 1.17, respectively.
For TCCTTT the same measures were 1.67 and 2.
For TCCTCT the same measures were 1.79 and 2.15.
The like results for AGCAGC were, in that order, 0.944 and 0.992.
As for CTTGCC, the binding signal in the assay with CRX is 1.1; with ELF5 it was 1.29.
For GGTATA the same measures were 1.02 and 1.09.
Consider CATCTG, for which the binding signal came to 1.15 with CRX and 1.23 in the assay with ELF5.
The like results for TGAACC were, in that order, 0.999 and 1.09.
The like results for TTGTCT were, in that order, 1.15 and 1.26.
Regarding TTTCTC, the binding signal with CRX stood at 1.67; with ELF5 it was 1.56.
The like results for GGATCC were, in that order, 0.997 and 1.13.
The like results for CAACCA were, in that order, 0.78 and 0.997.
For TTCTGC the same measures were 1.36 and 1.38.
For the sequence TCGATT, the binding signal is 1.37 with CRX and 1.03 with ELF5.
The like results for TACCCG were, in that order, 1.29 and 1.5.
Turning to CCCGAC, the results for the binding signal with CRX and with ELF5 were 1.06 and 1.38, respectively.
The like results for CCGATG were, in that order, 0.905 and 0.949.
As to CAAGGT, the binding signal in the assay with CRX worked out at 0.841; with ELF5, 0.966.
For TGATGG, the results for the binding signal with CRX and with ELF5 were 1.1 and 1.26, respectively.
The like results for CTTACC were, in that order, 1.58 and 1.39.
The like results for ACTAGC were, in that order, 1.11 and 1.13.
On to CGACTC, for which the binding signal is 1.31 with CRX and 1.33 with ELF5.
With ATCTAA, the binding signal was 1.83 in the assay with CRX and 1.17 with ELF5.
The like results for TTTTAA were, in that order, 2.18 and 1.17.
For ATGGCT the same measures were 1.48 and 1.25.
In the case of GCTTTC, the binding signal with CRX is 1.33; with ELF5 it was 1.23.
Regarding GTATTC, the binding signal turned out to be 1.13 with CRX and 1.31 with ELF5.
In the case of TGGACC, the figures for the binding signal with CRX and with ELF5 were 0.834 and 0.996, respectively.
With CGATCG, the binding signal came out at 0.941 in the assay with CRX and 0.913 in the assay with ELF5.
In the case of ATTCTG, the figures for the binding signal with CRX and with ELF5 were 1.5 and 1.21, respectively.
The like results for CGTCCG were, in that order, 0.734 and 1.44.
For the sequence CTGATC, the binding signal with CRX worked out at 1.95; with ELF5, 1.32.
For TACACG the same measures were 1.1 and 1.13.
For CTTATC the same measures were 2.44 and 1.17.
The like results for GCTGTA were, in that order, 1.02 and 1.07.
For the sequence ACCCGC, the binding signal came to 1.1 with CRX and 1.25 with ELF5.
For ACCGAA the same measures were 1.08 and 0.993.
For TACCGC the same measures were 1.03 and 1.08.
The like results for CACTGG were, in that order, 0.956 and 0.988.
Regarding CCATTT, the binding signal worked out at 1.01 in the assay with CRX and 1.31 with ELF5.
For the sequence TAAAAC, the figures for the binding signal with CRX and with ELF5 were 1.66 and 1.12, respectively.
The like results for TCACAG were, in that order, 0.993 and 0.993.
For CTCATT the same measures were 1.45 and 1.5.
In the case of CATCGA, the binding signal in the assay with CRX and with ELF5 was 1.05 each time.
In the case of TGAAAA, the figures for the binding signal in the assay with CRX and with ELF5 were 0.978 and 1.06, respectively.
Turning to AACTCG, the binding signal with CRX turned out to be 1.3; in the assay with ELF5, 1.35.
For TTGTGG, the binding signal amounted to 1.46 with CRX and 1.32 in the assay with ELF5.
For TGGTGT the same measures were 0.99 and 1.14.
Take ACATGG: the binding signal with CRX was found to be 0.892; with ELF5, 1.1.
For TCCAAT the same measures were 1.27 and 1.15.
On to ATGTCC, for which the results for the binding signal with CRX and in the assay with ELF5 were 0.937 and 1.65, respectively.
For TTGCCG the same measures were 0.895 and 1.07.
With CTGCAC, the binding signal stood at 0.944 with CRX and 1.1 with ELF5.
For the sequence TGTCTC, the binding signal in the assay with CRX came out at 0.916; with ELF5, 1.26.
The like results for ACTTTT were, in that order, 1.25 and 1.26.
The like results for TTATTG were, in that order, 2.35 and 1.2.
For CTCCTA, the binding signal was found to be 1.32 with FEV, 1.49 with CRX and 1.41 with ELF5.
On to AAAATC, for which the values for the binding signal in the assay with CRX and with ELF5 were 1.62 and 1.15, respectively.
Consider CGATGA, for which the binding signal stood at 0.97 in the assay with FEV, 0.936 in the assay with CRX and 1.01 in the assay with ELF5.
For CCACGC, the binding signal was 0.903 in the assay with CRX and 1.11 with ELF5.
For CTATGA the same measures were 0.965 and 1.
In the case of CGACCC, the binding signal in the assay with FEV was found to be 1.17; in the assay with CRX, 0.974; with ELF5, 1.26.
As for ACCGTC, the binding signal with CRX came to 0.903; with ELF5, 1.08.
For TGTCCA the same measures were 0.817 and 1.05.
With TTAAAC, the binding signal was 2.58 in the assay with CRX and 1.18 with ELF5.
For TTTGAG the same measures were 1.23 and 1.03.
With ATTGAA, the binding signal with FEV came out at 0.964; with CRX, 1.06; with ELF5, 0.965.
The like results for CCATGC were, in that order, 1.1, 0.828 and 1.03.
For ACGATC, the results for the binding signal in the assay with CRX and in the assay with ELF5 were 1.14 and 1.01, respectively.
Consider CAACAA, for which the binding signal with FEV is 1.05; in the assay with CRX, 0.889; with ELF5, 1.03.
On to GGGCTA, for which the results for the binding signal with CRX and with ELF5 were 1.15 and 1.09, respectively.
Consider ATAGCA, for which the values for the binding signal in the assay with FEV, in the assay with CRX and in the assay with ELF5 were 1.13, 1.07 and 1.16, respectively.
The like results for TACTAC were, in that order, 1.35, 1.13 and 1.36.
Consider AACATG, for which the binding signal with FEV was 1.1; in the assay with CRX it was 0.992; with ELF5, 1.15.
Turning to GCCAAT, the binding signal with CRX stood at 0.943; with ELF5, 0.985.
Take TACTCG: the binding signal with CRX was found to be 1.38; with ELF5, 1.25.
As to TCTGCA, the binding signal turned out to be 1.43 in the assay with FEV, 1.25 with CRX and 1.29 with ELF5.
As for ATACCC, the binding signal with CRX was 1.2; with ELF5, 1.18.
Turning to GGTCCT, the binding signal worked out at 0.948 in the assay with FEV, 0.702 with CRX and 0.976 in the assay with ELF5.
Regarding ATATCG, the results for the binding signal with CRX and with ELF5 were 1.07 and 1.1, respectively.
As for TGCCAA, the figures for the binding signal with FEV, with CRX and with ELF5 were 1.12, 0.925 and 1.1, respectively.
For GCACCC the same measures were 1.12, 0.762 and 1.17.
Take CACGAA: the binding signal was 0.988 in the assay with CRX and 1.02 with ELF5.
As for GGCCCC, the binding signal amounted to 0.732 in the assay with CRX and 0.898 with ELF5.
With CCTGCA, the binding signal was determined as 1.26 with FEV, 0.998 in the assay with CRX and 1.3 with ELF5.
On to CTGCCC, for which the results for the binding signal in the assay with CRX and with ELF5 were 0.902 and 1.19, respectively.

The values above are taken from article PMC7862700.
